# Experimental data taken from US11559590B2 (The General Hospital Corporation, priority 2016, dated 2023).
# Experiment: general procedure: Fmoc solid-phase peptide synthesis
# Conditions: whole synthesis, HPLC and mass spectroscopy
substance,measurement,value
NOTA-3-Ala-Gly-Gly-Ile-Glu-Phe-Asp-CHO,purity (crude or final not stated),greater than 90%
